One may read the AC50 as the concentration at which the activity in the assay is half-maximal.

The list shows a part of the results. Further columns of the screen follow, without active or inactive calls. The list favours compounds with an active or inconclusive main result. Words in brackets tell the shape of the fitted curve; partial curves, single points and poor fits give uncertain potencies.

The assay can be described thus: IkB Signaling. The conditions noted are these: ABC-DLBCL IkBa-CBG/CBR dual luciferase ratio (green luciferase fused to IkBa over red control in OCI-Ly3 lymphoma cells), 4 h. The essentials: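 Curves were fitted separately to fusion (green), unfused (red) and ratio luminescence, then classed by r2, magnitude and activity. Cells: OCI-Ly3, 4 h compound plus doxycycline at 37C; 10 uM MG-132 defined full response.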
Where [1] appears, read: measured here: control luc red channel unless noted.
The mark [2] stands for this setting: measured here: IkB-luc green channel.
Where [3] appears, read: measured here: control luc red channel.

Regarding `O=C(COc1ccccc1F)Nc1nnc(SCc2cc(=O)n3ccccc3n2)s1`, the AC50 under setting [1] was 31.6 µM [falling, single point].
Take `COc1ccc(CCNC(=O)c2ccc3c(c2)N(Cc2ccccc2Cl)C(=O)c2ccccc2S3)cc1OC`: under setting [1], the AC50 was 6.31 µM [rising, single point].
Turning to `Cc1csc(NC(=O)CSc2nnc(Cc3cccn3C)n2CCc2ccccc2)n1`, the AC50 by setting is: under setting [2], 12.6 µM [falling, partial curve]; under setting [3], 15.8 µM [falling, partial curve].
On to `COc1ccc(-c2cccc(NS(=O)(=O)c3cc(C(F)(F)F)ccc3Cl)c2)nn1`, for which the half-maximal activity concentration (AC50) under setting [1] is 31.6 µM [falling, single point].
Consider `COc1ccc(-n2cc(-c3ccccc3)c3c(N4CCCC(C)C4)ncnc32)cc1` (centres undefined), for which, under setting [1], the AC50 is 25.1 µM [falling, single point].
On the same count and under the same terms, for `CCc1nc2ccc(C(=O)NCc3ccccc3C)cc2nc1CC` the value was 20 µM [falling, partial curve]; for `COc1ccc(C(=O)NCCc2csc(-c3ccc(Cl)cc3)n2)cc1`, 31.6 µM [falling, single point]; for `CCC(Oc1ccc(F)cc1)C(=O)Nc1nc2c(s1)CCCC2` (centres undefined), 31.6 µM [falling, partial curve].
As to `COc1ccc(N2CC(C)Cn3c2nc2c3c(=O)n(Cc3ccccc3F)c(=O)n2C)c(OC)c1` (centres undefined), the AC50 under setting [1] was 12.6 µM [falling, partial curve].
On the same count and under the same terms, the result for `C=C(C)Cn1c(N2CCN(CC)CC2)nc2c1c(=O)[nH]c(=O)n2C` reads 20 µM [rising, partial curve] [measured here: IkB-luc green channel]; that for `O=C(Nc1ccc(F)cc1)c1oc2ccccc2c1NC(=O)C1CCCCC1`, 12.6 µM [falling, partial curve].
On to `Cc1cccc(N2CCN(C(=O)C(C)n3nc(C)n4c(cc5occc54)c3=O)CC2)c1C` (centres undefined), for which the AC50 under setting [1] was 25.1 µM [falling, single point].
Still for that read-out and setting: the result for `CCc1ccc(CNC(=O)Cn2nc(-c3ccc(Cl)cc3)ccc2=O)cc1` reads 10 µM [falling, partial curve]; that for `CCN(CC)S(=O)(=O)c1ccc(-c2csc(=Nc3cccc(C(F)(F)F)c3)n2Cc2ccc3c(c2)OCO3)cc1`, 25.1 µM [falling, single point].
For the molecule `O=c1c(O)c(-c2ccc(O)c(O)c2)oc2cc(O)cc(O)c12`, the concentration at half-maximal activity (AC50) by setting is: under setting [2], 31.6 µM [falling, partial curve, poor fit]; under setting [3], 15.8 µM [falling, partial curve, poor fit].
As for `Cc1ccc(S(=O)(=O)N2CCCc3cc(NS(=O)(=O)c4ccc(F)cc4)ccc32)cc1`, the AC50 under setting [1] was 25.1 µM [falling, single point].
Regarding `COc1cccc(NC(=O)Cn2c(=O)n(Cc3ccc(C(=O)NCc4ccc5c(c4)OCO5)cc3)c(=O)c3ccccc32)c1`, under setting [1], the AC50 is 10 µM [falling, partial curve].
Still for that read-out and setting: the result for `O=C(Cn1nnc(-c2ccccc2NC(=O)c2cccs2)n1)Nc1ccccc1` reads 15.8 µM [falling, partial curve]; that for `CN(C)c1ccc(CNC(=O)C2CCN(S(=O)(=O)c3ccc4c(c3)oc(=O)n4C)CC2)cc1`, 39.8 µM [falling, single point]; that for `O=C(Nc1nccs1)c1ccc(Cl)c(S(=O)(=O)N2CCOCC2)c1`, 25.1 µM [falling, single point].
Same read-out and setting: for `COc1ccccc1C(=O)N(c1ccc(C)cc1)S(=O)(=O)c1ccc(Cl)cc1` the value was 3.16 µM [falling, full curve]; for `Cc1ccc(CNc2nc3ccccc3n3cnnc23)cc1`, 1 µM [rising, full curve]; for `Cc1csc2nc(COC(=O)c3ccc(NC(=O)C(C)Oc4ccccc4)cc3)cc(=O)n12` (centres undefined), 31.6 µM [falling, single point].
For `COc1ccc(NC(=O)c2cnc(N3CCCC3)nc2)cc1OC`, the half-maximal activity concentration (AC50) under setting [1] is 39.8 µM [falling, single point].
The same measure, in the same setting: the result for `CCCC1=Nc2cc(C(=O)N3CCC(C(=O)OCC)CC3)ccc2Sc2ccccc21` reads 25.1 µM [falling, partial curve]; that for `O=S(=O)(Nc1ccc2c(c1)OCCO2)c1ccc(Br)s1`, 15.8 µM [falling, partial curve]; that for `Cc1cc(C)n(CC(O)COc2ccccc2C(=O)Nc2ccccc2)n1` (centres undefined), 15.8 µM [falling, partial curve].
The same measure, in the same setting: the result for `O=C(C1CCCN(S(=O)(=O)c2cccc3nsnc23)C1)N1CCN(c2cccc(Cl)c2)CC1` (centres undefined) reads 10 µM [falling, partial curve]; that for `CC(=O)c1cccc(NC(=O)c2c(F)c(F)c(F)c(F)c2F)c1`, 3.98 µM [falling, partial curve]; that for `Cc1ccc2nc(-c3ccccn3)c(Nc3ccccc3C)n2c1`, 39.8 µM [falling, single point].
For the molecule `CC(C)c1ccc2oc(-c3cc(N)ccc3O)nc2c1`, the AC50 under setting [1] is 0.158 µM [falling, full curve].
Regarding `CCc1cccc(C)c1NS(=O)(=O)c1ccc2c(c1)CC(C)N2C(=O)C1CC1` (centres undefined), the AC50 under setting [1] was 15.8 µM [falling, partial curve].
Same read-out and setting: for `Cc1ccc2c(CC(=O)OC3CCOC3=O)coc2c1` (centres undefined) the value was 5.01 µM [falling, partial curve]; for `COc1ccc(-c2noc(CSc3nc4ccccc4[nH]3)n2)cc1OC`, 2 µM [rising, partial curve]; for `O=C(Nc1cccc(-c2cn3cccnc3n2)c1)c1ccc2c(c1)OCO2`, 20 µM [falling, partial curve].
As to `O=S(=O)(Nc1ncnc2sc3c(c12)CCC3)c1ccc(Cl)s1`, the AC50 under setting [1] is 15.8 µM [falling, partial curve].
On to `CCN1C(=O)C(O)(c2c[nH]c3ccccc23)c2cc(Br)ccc21` (centres undefined), for which the AC50 under setting [1] is 31.6 µM [falling, single point].
Same read-out and setting: the result for `Cc1cccc(Cn2c(=O)n(-c3ccccc3C)c(=O)c3c2c2cc(C)ccc2n3C)c1` reads 10 µM [falling, partial curve].
The same measure, in the same setting: the result for `Cc1ccc(CCNC(=O)C2CCN(S(=O)(=O)c3ccc4c(ccn4C)c3)CC2)cc1` reads 0.01 µM [falling, full curve, poor fit]; that for `Cn1cc(S(=O)(=O)CC(=O)Nc2ccc3c(c2)OCO3)c2ccccc21`, 3.98 µM [falling, partial curve]; that for `Cc1ccc(CNC(=O)CSc2nc3ccccc3nc2Cc2ccc(C)cc2)cc1`, 39.8 µM [rising, single point].
Same read-out and setting: the result for `O=C(/C=C/Nc1cccc(O)c1)c1ccccc1` reads 5.01 µM [falling, partial curve].
For `Cc1cccc(-c2nc3c(cnn3-c3ccccc3)c(=O)n2-c2ccc(Cl)cc2)c1`, under setting [1], the AC50 is 3.16 µM [rising, partial curve].
On the same count and under the same terms, the result for `COc1ccc(NC(=O)CSc2nc(C)cc(C)c2C(=O)Nc2ccccc2OC)cc1` reads 6.31 µM [falling, partial curve]; that for `Cc1cc2cc(C(c3nnnn3Cc3ccco3)N3CCc4ccccc4C3)c(=O)[nH]c2cc1C` (centres undefined), 12.6 µM [falling, partial curve].
Same read-out and setting: the result for `O=C(CCSCc1cccc(Cl)c1)NCCc1ccc(Cl)cc1` reads 39.8 µM [falling, partial curve]; that for `CCOC(=O)C1CCCN(C(=O)c2cc3c(C)nc4ccccc4c3o2)C1` (centres undefined), 15.8 µM [falling, single point]; that for `COc1ccc(-n2c(SCC(=O)NCc3ccc(F)cc3)nc3c([nH]c4ccccc43)c2=O)cc1`, 1 µM [rising, full curve].
Regarding `Cc1oc(-c2ccc(Cl)cc2)nc1Cn1c(=O)cc(C)c2c(C)nn(-c3ccccc3)c21`, under setting [1], the AC50 was 3.98 µM [falling, full curve, poor fit].
Still for that read-out and setting: the result for `O=C(NCCc1ccc(Cl)cc1)C1CCN(S(=O)(=O)c2ccc3[nH]ccc3c2)CC1` reads 12.6 µM [falling, partial curve]; that for `CCOC(=O)c1c(C)oc2nc(C)nc(NCCCN3CCN(c4cc(C)ccc4C)CC3)c12`, 39.8 µM [falling, single point]; that for `CC(C)c1ccc(Nc2c(-c3ccccn3)nc3ccccn23)cc1`, 25.1 µM [falling, single point].
On the same count and under the same terms, the result for `COc1ccc(-c2nc(CSCC(=O)NCc3ccccc3Cl)c(C)o2)cc1OC` reads 12.6 µM [falling, partial curve].
`COC(=O)C1=C(Cn2cnc3ccccc32)NC(=O)NC1c1cc(C)ccc1C` (centres undefined): under setting [1], the AC50 was 7.94 µM [falling, partial curve].
Same read-out and setting: for `Cc1cc(C)c(Cn2c(=O)n(CCCC(=O)NCc3ccc4c(c3)OCO4)c(=O)c3sccc32)c(C)c1` the value was 39.8 µM [rising, single point] [measured here: IkB-luc green channel].
On the same count and under the same terms, the result for `Cn1nnc2c(NCc3c(F)cccc3F)ncnc21` reads 7.94 µM [falling, single point].
Regarding `COc1ccc(CCNC(=O)c2cc(=O)c3cc(C)c(C)cc3o2)cc1OC`, under setting [1], the AC50 is 31.6 µM [falling, partial curve].
Regarding `CCc1ccc(C(=O)CC2(O)C(=O)N(CCc3ccccc3)c3ccc(Cl)cc32)cc1` (centres undefined), the half-maximal activity concentration (AC50) under setting [1] is 12.6 µM [falling, partial curve].
Take `Cn1c(=O)c2c(nc(SCC(=O)Nc3ccc(F)c(F)c3)n2Cc2ccccc2F)n(C)c1=O`: the AC50 under setting [1] was 0.316 µM [rising, full curve].
As to `COc1ccc(CCNC(=O)CCc2c(C)nc3cc(-c4cccc(F)c4)nn3c2C)cc1OC`, the AC50 under setting [1] was 12.6 µM [falling, partial curve].
Take `CCCOc1ccc(C(=O)N(Cc2ccco2)Cc2ccco2)cc1`: under setting [1], the AC50 is 10 µM [falling, partial curve].
Same read-out and setting: for `Cc1ccccc1OCC(=O)Nc1ccccc1OCc1cc(=O)n2ccccc2n1` the value was 1.26 µM [falling, partial curve].

The values above are taken from PubChem BioAssay AID445 (National Center for Advancing Translational Sciences (NCATS), 2006).
